For 16 molecules, AC50, max response and viability change results are on record in PubChem BioAssay (NCATS).

A short description of test [1]: qHTS Assay for Inhibitors of PDE-IV (AID 607). The following applies: HEK293 ACTOne CNG channel cells, membrane potential fluorescence; measured here: parental cell counter-screen. Put shortly: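 The readout is membrane depolarisation from a cAMP-sensing CNG channel, detected with a potential dye at ex 535/em 590. Cells were HEK293-derived (endogenous PDE-IV) at 1000 cells/well, titrated up to 22.9 uM final.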

Test [2] is described as follows: qHTS Assay for Lipid Storage Modulators (AID 1519). The following applies: Drosophila S3 cells, BODIPY lipid droplet/cell ratio, laser cytometry, cells loaded with oleic acid. The gist of the method:
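Cells seeded at 5,000 per well were treated with compounds over a concentration series and loaded with oleic acid (400 uM, as added). Lipid droplet fluorescence (488 nm excitation, 500-530 nm channel) was read by laser-scanning cytometry and normalized to 20 uM Triacsin C.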

A short description of test [3]: qHTS Assay for Modulators of Human Peripheral Myelin Protein 22 (PMP22) Expression/Activity (AID 1967). The following applies: Cell-based PMP22 reporter, dual-color luciferase ratio. Put shortly:
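Quantitative HTS in a mouse Schwann cell line expressing dual click beetle luciferases: Pmp22 promoter (green) and control EF-alpha promoter (red). After 24h treatment, corrected green/red signal ratio gave %Activity relative to untreated cells.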
On the technique in general: Quantitative high-throughput screening tests each substance at several concentrations.

Test [4] is described as follows: qHTS Validation Assay to Find Inhibitors of Chronic Active B-Cell Receptor Signaling (AID 485345). The following applies: ABC-DLBCL cells, chronic BCR signaling reporter. Put shortly:
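TMD8 ABC-DLBCL cells stably carrying doxycycline-inducible IkappaBalpha–green luciferase fusion plus unfused red luciferase; compounds 46 uM to 3 nM, 4 h at 37C with doxycycline. Corrected green/red luminescence ratio normalized to 10 uM MG-132 and basal cell wells; curves fitted.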

Test [5] in a line: Nrf2 qHTS screen for inhibitors: Validation (AID 493153). The following applies: A549 ARE-Fluc reporter, 18-24 h; AC50: CellTiter-Fluor fluorescence read, measured here: cytotoxicity CellTiter-Fluor AC50; viability change: measured here: cytotoxicity max response. The gist of the method:
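In this counterscreened reporter format, each well gives two signals: CellTiter-Fluor fluorescence for cytotoxicity and ARE-luciferase luminescence for Nrf2 function. A549 ARE_Fluc cells in 5% FBS OPTI-MEM were exposed to compound titrations for 18-24 h.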

The nature of test [6]: qHTS assay for small molecule antagonists of peroxisome proliferator-activated receptor delta signaling (AID 588535).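 Note: cells co-treated with a PPAR-delta agonist as stimulator during compound exposure.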 The following applies: HEK293T PPARd-UAS-bla, beta-lactamase FRET ratio, 18 h; 460 nm channel. Put shortly: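 Beta-lactamase reporter read-out (405 nm excitation, 460/530 nm emission) after CCF4 loading for 2 hrs at RT. HEK293T PPAR-delta-UAS-bla cells, 2% charcoal/dextran FBS, compounds for 18 hrs at 37 C. Hill fit gave IC50 and efficacy.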

Test [7] can be described thus: qHTS assay for small molecule antagonists of peroxisome proliferator-activated receptor gamma signaling (AID 588537). The following applies: HEK293 PPARg-UAS-bla, beta-lactamase ratio, antagonist mode; measured here: W460 blue channel. Put shortly: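 Read-out: CCF4 fluorescence (ex 405, em 460/530 nm) after 2 h at RT. Cells were HEK293 carrying a UAS-bla reporter and treated 16 h at 37 C with compound plus rosiglitazone (50 nM final). Normalized to rosiglitazone and DMSO.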

Test [8] in a line: qHTS assay for small molecule agonists of retinoid X receptor alpha signaling (AID 588544). The following applies: HEK293T RXRa-UAS-bla, beta-lactamase reporter, 18 h; 530 nm emission.
Test [9] can be described thus: qHTS assay for small molecule antagonists of retinoid X receptor alpha signaling (AID 588546).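 Note: cells stimulated with 9-cis-retinoic acid as agonist; % is set by controls: 0 for no effect and ±100 for the full control effect.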 The following applies: HEK293T RXRa-UAS-bla, beta-lactamase ratio, antagonist mode; measured here: W530 green channel, cytotoxicity proxy. Put shortly:
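Beta-lactamase reporter inhibition, read as CCF4 fluorescence ratio (ex 405, em 460/530 nm) after 2 h at RT. HEK293T UAS-bla cells, 2500/well, were stimulated with 9-cis-RA at 500 or 100 nM final alongside test compound for 18 h at 37 C.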

Test [10] in a line: qHTS assay for small molecule antagonists of androgen receptor signaling (AID 588516). The following applies: AR-UAS-bla HEK293, beta-lactamase ratio, antagonist mode, 16 h; measured here: W460 blue channel fit. The gist of the method:
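Antagonist mode: inhibition of R1881-stimulated (10 nM final) bla reporter in GeneBLAzer AR HEK 293 cells, 16 h at 37C, compounds titrated. IC50 and efficacy from Hill-equation fits of 405/460–530 nm FRET ratios.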

The nature of test [11]: qHTS assay for small molecule antagonists of vitamin D receptor signaling (AID 588541). The following applies: HEK293T VDR-UAS-bla, beta-lactamase ratio, antagonist mode; measured here: W460 blue channel (cell viability).
Test [12] in a line: S16 Schwann cell PMP22 intronic element beta-lactamase assay (AID 624044). The following applies: S16 rat Schwann cells, PMP22 element beta-lactamase FRET, 24 h; measured here: 530 nm viability channel. The gist of the method:
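Beta-lactamase reporter under a PMP22 intronic regulatory element in stable S16 rat Schwann cells; 24 h compound exposure. 460 nm blue signal normalized between DMSO (0%) and potassium clavulanate, with 535 nm FRET tracking viability; curves classed by r2 and response.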

The nature of test [13]: qHTS assay for small molecule antagonists of glucocorticoid receptor signaling (AID 588533). The following applies: HeLa MMTV-bla, GRE beta-lactamase ratio, antagonist mode, 18 h; measured here: W530 channel AC50.
[14] abbreviates: measured here: cell count channel max response.
[15] abbreviates: measured here: lipid (BODIPY) channel AC50.
[16] abbreviates: measured here: lipid channel max response.
Setting [17] is: measured here: red reporter channel AC50, EF-alpha promoter control reporter in MSC80 mouse Schwann cells.
Setting [18] is: measured here: CBG/CBR ratio read-out.
Where [19] appears, read: measured here: cell number channel AC50.
Where [20] appears, read: measured here: CBR control luciferase (viability counter).

The structures appear in SMILES notation. Several values for one entry are separate records, joined by “and”; a condition that tells them apart may be missing. Equal values may be shown once. Some of the results follow. The main result of the screen is listed elsewhere. These columns were measured beside it and carry no call. The list favours compounds with an active or inconclusive main result. For part of these data: Words in brackets tell the shape of the fitted curve; partial curves, single points and poor fits give uncertain potencies.

A word on the AC50: it is the midpoint of the concentration-response curve, whichever way the signal moves.

Consider `Cc1ccccc1-c1ccc2ncnc(NCc3cccs3)c2c1`, for which the AC50 in test [1] was 10 µM [rising, partial curve]; in test [2] (setting [15]) it was 5.01 µM [rising, partial curve, poor fit]. The max response in [2] (setting [14]) is 2.52%; in test [2] (setting [16]), -0.433%.
For the molecule `COc1ccccc1CNc1ncncc1-c1ccccc1C(F)(F)F`, the AC50 in test [1] is 10 µM [rising, single point]; in test [2] (setting [15]), 0.355 µM [rising, full curve]. Also, the max response in [2] (setting [14]) worked out at 25.6%; in [2] (setting [16]), 30.8%.
Regarding `Cc1cc(C)c(/C=C2\C(=O)Nc3ccccc32)[nH]1`, the max response in test [2] (setting [14]) was 118%; in [2] (setting [16]) it was -76.9%. The AC50 was 7.94 µM [falling, full curve] in test [2] (setting [15]); 33.8 µM [falling, partial curve] in test [3] (setting [17]); 7.31 µM [falling, partial curve] in test [4] (setting [18]); 23.1 µM [falling, partial curve, poor fit] in test [5]. Further, in [5], the viability change was -22.3%.
With `COc1ccccc1N1CCN(CCN(C(=O)c2ccc(F)cc2)c2ccccn2)CC1`, the figures for the max response in [2] (setting [14]) and in test [2] (setting [16]) were -22.6% and -21.9%, respectively. In addition, the AC50 in test [2] (setting [19]) was 22.4 µM [falling, partial curve, poor fit]; in test [3] (setting [17]), 84.9 µM [falling, single point]. Moreover, the viability change in test [5] is -10.3%.
As for `CC(=O)OC/C=C(C)/C=C/C=C(C)/C=C/C1=C(C)CCCC1(C)C`, the max response in [2] (setting [14]) is 19%; in test [2] (setting [16]), 30.4%; in test [6] it was 79.6%; in test [8], 48.2% and 52.9%; in test [9] it was 23%. In addition, the AC50 in test [2] (setting [15]) is 17.8 µM [rising, partial curve]; in test [7] it was 50.1 µM [rising, single point].
As for `CN(C)CC/C=C1\c2ccccc2COc2ccccc21`, the max response in test [2] (setting [14]) came to 24.5%; in test [2] (setting [16]), 31.4%. Further, the AC50 in test [2] (setting [15]) was 35.5 µM [rising, single point]; in test [3] (measured here: green reporter channel AC50, mouse Pmp22 promoter in mouse Schwann cells) it was 84.9 µM [falling, single point]; in test [3] (setting [17]), 84.9 µM [falling, single point].
Regarding `CC(=O)O[C@H]1C(=O)[C@@]2(C)[C@H]([C@H](OC(=O)c3ccccc3)[C@]3(O)C[C@H](OC(=O)[C@H](O)[C@@H](NC(=O)c4ccccc4)c4ccccc4)C(C)=C1C3(C)C)[C@]1(OC(C)=O)CO[C@@H]1C[C@@H]2O`, the max response is 0.493% in [2] (setting [14]), -38.9% in test [2] (setting [16]), 67% in [6] and -2.59% in test [9]. Also, the AC50 in [2] (setting [19]) was 0.251 µM [rising, full curve, poor fit]; in test [10], 0.316 µM [falling, full curve, poor fit]; in [11], 0.1 µM [falling, full curve, poor fit]; in [12] it was 0.0398 µM [rising, full curve].
With `Oc1cc2c(cc1O)[C@H]1c3ccc(O)c(O)c3OC[C@@]1(O)C2`, the figures for the max response in test [2] (setting [14]), in test [2] (setting [16]) and in test [6] were 76.7%, 120% and -23.2%, respectively. Also, the AC50 in [2] (setting [15]) is 31.6 µM [rising, partial curve, poor fit]; in [13], 11.2 µM [falling, partial curve, poor fit]; in test [7] it was 0.0398 µM [falling, full curve, poor fit].
For the molecule `CS(=O)(=O)N1CCC2(CCN(Cc3ccc(C#N)cc3)CC2)CC1`, the AC50 is 0.398 µM [rising, single point] in test [1] and 0.562 µM [rising, full curve, poor fit] in test [2] (setting [15]). The max response in test [2] (setting [14]) is 15.8%; in [2] (setting [16]), 23.3%.
For `Nc1ccc(CCNc2ncnc3c2ncn3C2OC(CO)C(O)C2O)cc1` (centres undefined), the max response came to 44.9% in test [2] (setting [14]) and 44% in test [2] (setting [16]). Further, the AC50 is 0.0251 µM [falling, full curve, poor fit] in test [2] (setting [19]); 2.31 µM [falling, full curve] in test [4] (setting [18]); 1.46 µM [rising, full curve] in test [4] (setting [20]).
As for `Cc1cccc(CNc2cc(-c3ccccc3C)ncn2)c1`, the half-maximal activity concentration (AC50) in [1] is 15.8 µM [rising, single point]; in test [2] (setting [15]) it was 39.8 µM [falling, single point]. In addition, the max response in [2] (setting [14]) is -14.4%; in [2] (setting [16]) it was -35.2%.
In the case of `c1ccc(-c2ccc(N3CCCC4(CCNCC4)C3)cc2)cc1`, the AC50 in test [1] was 1 µM [rising, partial curve]; in test [2] (setting [15]), 0.447 µM [rising, partial curve, poor fit]. Further, the max response is 11.2% in [2] (setting [14]) and -17.3% in [2] (setting [16]).
For `CCCCC/C=C\CC(O)/C=C/c1cccc(CC(O)CCCCO)n1` (centres undefined), the values for the max response in [2] (setting [14]) and in test [2] (setting [16]) were 52.7% and 52.6%, respectively. The half-maximal activity concentration (AC50) is 39.8 µM [rising, single point] in [2] (setting [19]); 75.7 µM [falling, single point] in test [3] (setting [17]); 16.4 µM [falling, single point] in test [4] (setting [18]); 23.1 µM [falling, single point] in test [4] (setting [20]).
With `CCCCC[C@H](O)C=C[C@H]1[C@H](O)CC(=O)[C@H]1CCCCCCC(=O)O`, the concentration at half-maximal activity (AC50) in [1] was 5.01 µM [rising, partial curve, poor fit]; in test [2] (setting [15]), 15.8 µM [rising, single point]. The max response worked out at 27.1% in test [2] (setting [14]) and 33.7% in [2] (setting [16]).
As for `CCCCCCCCCCCCCCSCC(=O)O`, the max response in test [2] (setting [14]) is -9.79%; in test [2] (setting [16]) it was -12%; in [6], 140%; in test [8], 12.4%. Also, the AC50 in test [2] (setting [15]) is 7.94 µM [falling, single point]; in test [7], 7.94 µM [rising, full curve, poor fit]; in test [11], 17.8 µM [rising, full curve, poor fit].
Turning to `O=C(C1CCCCC1)N1CC(=O)N2CCc3ccccc3C2C1` (centres undefined), the values for the max response in test [2] (setting [14]) and in test [2] (setting [16]) were 18.6% and 38.6%, respectively. The concentration at half-maximal activity (AC50) in test [2] (setting [15]) was 44.7 µM [rising, partial curve, poor fit]. The viability change in test [5] is -0.919%.
